Test results as given in patent US8211631B2, “In vitro model of spinal muscular atrophy” (Wisconsin Alumni Research Foundation, priority 2008, dated 2012).
Some results were stated once for a whole list of compounds, not compound by compound.

Tested on: SMN protein in iPS-SMA cells
Experiment: Western blot analysis of SMN protein in drug-treated iPS-SMA cells
Type: cell-based, human
Conditions: corrected to beta-actin, two days after drug treatment, 1 mM valproic acid or tobramycin, n=3
Method: Protein isolation and western blot analysis. Cells were isolated, suspended in 1% Triton X-100 lysis buffer supplemented with 1% protease inhibitor cocktail (Sigma), triturated and centrifuged at 16,060 g for 10 min at 4° C. Ten to twenty micrograms of protein was separated on 12% SDS-polyacrylamide gel, transferred to a nitrocellulose membrane and probed with a primary antibody against SMN (mouse monoclonal), followed by a horseradish-peroxidase-conjugated secondary antibody (Promega), and then visualized using ECL chemiluminescence (Amersham). As a control, the membrane was stripped and re-probed for beta-actin. For semiquantitative analysis, SMN signal intensity was analyzed and corrected with respect to beta-actin.
Finally, we assessed whether SMN-inducing compounds could increase SMN levels in the iPS-SMA cellular context because this would be an important proof-of-principle for the further development of drug screens. SMN protein is found in both the cytoplasm and nuclear aggregate structures called gems, and the number of gems present is inversely correlated to disease severity (Coovert, D. D. et al. The survival motor neuron protein in spinal muscular atrophy, Hum. Mol. Genet. 6, 1205-1214, 1997). […] We are at present assessing gem formation in differentiating motor neurons and have shown that they can indeed be detected (FIG. 14A, B).

Row | Structure (SMILES) | increase in SMN protein levels compared to untreated iPS-SMA cells
1 | NC[C@H]1O[C@H](O[C@H]2[C@H](O)[C@@H](O[C@H]3O[C@H](CO)[C@@H](O)[C@H](N)[C@H]3O)[C@H](N)C[C@@H]2N)[C@H](N)C[C@@H]1O [tobramycin] | 2-3 fold
2 | CCCC(CCC)C(=O)O [valproic acid] | 2-3 fold
